From patent publication US20200340060A1, “COMPOSITIONS AND METHODS FOR IDENTIFYING AND TREATING LIVER DISEASES AND MONITORING TREATMENT OUTCOMES” (Gilead Sciences, Inc., priority 2017, published 2020)

B1: PCSK7 (protein, UniProt Q16549 142-785, looked up)
Proprotein convertase …: SVHFNDPKYPQQWHLNNRRSPGRDINVTGVWERNVTGRGVTVVVVDDGVEHTIQDIAPNYSPEGSYDLNSNDPDPMPHPDVENGNHHGTRCAGEIAAVPNNSFCAVGVAYGSRIAGIRVLDGPLTDSMEAVAFNKHYQINDIYSCSWGPDDDGKTVDGPHQLGKAALQHGVIAGRQGFGSIFVVASGNGGQHNDNCNYDGYANSIYTVTIGAVDEEGRMPFYAEECASMLAVTFSGGDKMLRSIVTTDWDLQKGTGCTEGHTGTSAAAPLAAGMIALMLQVRPCLTWRDVQHIIVFTATRYEDRRAEWVTNEAGFSHSHQHGFGLLNAWRLVNAAKIWTSVPYLASYVSPVLKENKAIPQSPRSLEVLWNVSRMDLEMSGLKTLEHVAVTVSITHPRRGSLELKLFCPSGMMSLIGAPRSMDSDPNGFNDWTFSTVRCWGERARGTYRLVIRDVGDESFQVGILRQWQLTLYGSVWSAVDIRDRQRLLESAMSGKYLHDDFALPCPPGLKIPEEDGYTITPNTLKTLVLVGCFTVFWTVYYMLEVYLSQRNVASNQVCRSGPCHWPHRSRKAKEEGTELESVPLCSSKDPDEVETESRGPPTTSDLLAPDLLEQGDWSLSQNKSALDCPHQHLDVPHGKEEQIC
B2: AK1A1 (protein, UniProt P14550 2-325, looked up)
Aldo-keto reductase family 1 …: AASCVLLHTGQKMPLIGLGTWKSEPGQVKAAVKYALSVGYRHIDCAAIYGNEPEIGEALKEDVGPGKAVPREELFVTSKLWNTKHHPEDVEPALRKTLADLQLEYLDLYLMHWPYAFERGDNPFPKNADGTICYDSTHYKETWKALEALVAKGLVQALGLSNFNSRQIDDILSVASVRPAVLQVECHPYLAQNELIAHCQARGLEVTAYSPLGSSDRAWRDPDEPVLLEEPVVLALAEKYGRSPAQILLRWQVQRKVICIPKSITPSRILQNIKVFDFTFSPEEMKQLNALNKNWRYIVPMLTVDGKRVPRDAGHPLYPFNDPY
B3: FLRT3 (protein, UniProt Q9NZU0 29-649, looked up)
Leucine-rich repeat …: KSCPSVCRCDAGFIYCNDRFLTSIPTGIPEDATTLYLQNNQINNAGIPSDLKNLLKVERIYLYHNSLDEFPTNLPKYVKELHLQENNIRTITYDSLSKIPYLEELHLDDNSVSAVSIEEGAFRDSNYLRLLFLSRNHLSTIPWGLPRTIEELRLDDNRISTISSPSLQGLTSLKRLVLDGNLLNNHGLGDKVFFNLVNLTELSLVRNSLTAAPVNLPGTNLRKLYLQDNHINRVPPNAFSYLRQLYRLDMSNNNLSNLPQGIFDDLDNITQLILRNNPWYCGCKMKWVRDWLQSLPVKVNVRGLMCQAPEKVRGMAIKDLNAELFDCKDSGIVSTIQITTAIPNTVYPAQGQWPAPVTKQPDIKNPKLTKDHQTTGSPSRKTITITVKSVTSDTIHISWKLALPMTALRLSWLKLGHSPAFGSITETIVTGERSEYLVTALEPDSPYKVCMVPMETSNLYLFDETPVCIETETAPLRMYNPTTTLNREQEKEPYKNPNLPLAAIIGGAVALVTIALLALVCWYVHRNGSLFSRNCAYSKGRRRKDDYAEAGTKKDNSILEIRETSFQMLPISNEPISKEEFVIHTIFPPNGMNLYKNNHSESSSNRSYRDSGIPDSDHSHS
B4: CNTN2 (protein, UniProt Q02246 31-1012, looked up)
Contactin-2: SQTTFGPVFEDQPLSVLFPEESTEEQVLLACRARASPPATYRWKMNGTEMKLEPGSRHQLVGGNLVIMNPTKAQDAGVYQCLASNPVGTVVSREAILRFGFLQEFSKEERDPVKAHEGWGVMLPCNPPAHYPGLSYRWLLNEFPNFIPTDGRHFVSQTTGNLYIARTNASDLGNYSCLATSHMDFSTKSVFSKFAQLNLAAEDTRLFAPSIKARFPAETYALVGQQVTLECFAFGNPVPRIKWRKVDGSLSPQWTTAEPTLQIPSVSFEDEGTYECEAENSKGRDTVQGRIIVQAQPEWLKVISDTEADIGSNLRWGCAAAGKPRPTVRWLRNGEPLASQNRVEVLAGDLRFSKLSLEDSGMYQCVAENKHGTIYASAELAVQALAPDFRLNPVRRLIPAARGGEILIPCQPRAAPKAVVLWSKGTEILVNSSRVTVTPDGTLIIRNISRSDEGKYTCFAENFMGKANSTGILSVRDATKITLAPSSADINLGDNLTLQCHASHDPTMDLTFTWTLDDFPIDFDKPGGHYRRTNVKETIGDLTILNAQLRHGGKYTCMAQTVVDSASKEATVLVRGPPGPPGGVVVRDIGDTTIQLSWSRGFDNHSPIAKYTLQARTPPAGKWKQVRTNPANIEGNAETAQVLGLTPWMDYEFRVIASNILGTGEPSGPSSKIRTREAAPSVAPSGLSGGGGAPGELIVNWTPMSREYQNGDGFGYLLSFRRQGSTHWQTARVPGADAQYFVYSNESVRPYTPFEVKIRSYNRRGDGPESLTALVYSAEEEPRVAPTKVWAKGVSSSEMNVTWEPVQQDMNGILLGYEIRYWKAGDKEAAADRVRTAGLDTSARVSGLHPNTKYHVTVRAYNRAGTGPASPSANATTMKPPPRRPPGNISWTFSSSSLSIKWDPVVPFRNESAVTGYKMLYQNDLHLTPTLHLTGKNWIEIPVPEDIGHALVQIRTTGPGGDGIPAEVHIVRNGGTSMMVEN
B5: sTie-2 (protein, UniProt Q02763 23-748, looked up)
extracellular domain: AMDLILINSLPLVSDAETSLTCIASGWRPHEPITIGRDFEALMNQHQDPLEVTQDVTREWAKKVVWKREKASKINGAYFCEGRVRGEAIRIRTMKMRQQASFLPATLTMTVDKGDNVNISFKKVLIKEEDAVIYKNGSFIHSVPRHEVPDILEVHLPHAQPQDAGVYSARYIGGNLFTSAFTRLIVRRCEAQKWGPECNHLCTACMNNGVCHEDTGECICPPGFMGRTCEKACELHTFGRTCKERCSGQEGCKSYVFCLPDPYGCSCATGWKGLQCNEACHPGFYGPDCKLRCSCNNGEMCDRFQGCLCSPGWQGLQCEREGIQRMTPKIVDLPDHIEVNSGKFNPICKASGWPLPTNEEMTLVKPDGTVLHPKDFNHTDHFSVAIFTIHRILPPDSGVWVCSVNTVAGMVEKPFNISVKVLPKPLNAPNVIDTGHNFAVINISSEPYFGDGPIKSKKLLYKPVNHYEAWQHIQVTNEIVTLNYLEPRTEYELCVQLVRRGEGGEGHPGPVRRFTTASIGLPPPRGLNLLPKSQTTLNLTWQPIFPSSEDDFYVEVERRSVQKSDQQNIKVPGNLTSVLLNNLHPREQYVVRARVNTKAQGEWSEDLTAWTLSDILPPQPENIKISNITHSSAVISWTILDGYSISSITIRYKVQGKNEDQHVDVKIKNATITQYQLKGLEPETAYQVDIFAENNIGSSNPAFSHELVTLPESQAPADLGGGKMLL
modifications: extracellular domain
B6: KYNU (protein, UniProt Q16719 1-465, looked up)
Kynureninase: MEPSSLELPADTVQRIAAELKCHPTDERVALHLDEEDKLRHFRECFYIPKIQDLPPVDLSLVNKDENAIYFLGNSLGLQPKMVKTYLEEELDKWAKIAAYGHEVGKRPWITGDESIVGLMKDIVGANEKEIALMNALTVNLHLLMLSFFKPTPKRYKILLEAKAFPSDHYAIESQLQLHGLNIEESMRMIKPREGEETLRIEDILEVIEKEGDSIAVILFSGVHFYTGQHFNIPAITKAGQAKGCYVGFDLAHAVGNVELYLHDWGVDFACWCSYKYLNAGAGGIAGAFIHEKHAHTIKPALVGWFGHELSTRFKMDNKLQLIPGVCGFRISNPPILLVCSLHASLEIFKQATMKALRKKSVLLTGYLEYLIKHNYGKDKAATKKPVVNIITPSHVEERGCQLTITFSVPNKDVFQELEKRGVVCDKRNPNGIRVAPVPLYNSFHDVYKFTNLLTSILDSAETKN
B7: Nectin-like protein 2 (protein, UniProt Q8N126 25-398, looked up)
Cell adhesion molecule 3: NLSQDDSQPWTSDETVVAGGTVVLKCQVKDHEDSSLQWSNPAQQTLYFGEKRALRDNRIQLVTSTPHELSISISNVALADEGEYTCSIFTMPVRTAKSLVTVLGIPQKPIITGYKSSLREKDTATLNCQSSGSKPAARLTWRKGDQELHGEPTRIQEDPNGKTFTVSSSVTFQVTREDDGASIVCSVNHESLKGADRSTSQRIEVLYTPTAMIRPDPPHPREGQKLLLHCEGRGNPVPQQYLWEKEGSVPPLKMTQESALIFPFLNKSDSGTYGCTATSNMGSYKAYYTLNVNDPSPVPSSSSTYHAIIGGIVAFIVFLLLIMLIFLGHYLIRHKGTYLTHEAKGSDDAPDADTAIINAEGGQSGGDDKKEYFI
B8: CD30 Ligand (protein, UniProt P32971 1-234, looked up)
Tumor necrosis factor ligand …: MDPGLQQALNGMAPPGDTAMHVPAGSVASHLGTTSRSYFYLTTATLALCLVFTVATIMVLVVQRTDSIPNSPDNVPLKGGNCSEDLLCILKRAPFKKSWAYLQVAKHLNKTKLSWNKDGILHGVRYQDGNLVIQFPGLYFIICQLQFLVQCPNNSVDLKLELLINKHIKKQALVTVCESGMQTKHVYQNLSQFLLDYLQVNTTISVNVDTFQYIDTSTFPLENVLSIFLYSNSD
B9: FCG3B (protein, UniProt O75015 17-200, looked up)
Low affinity immunoglobulin …: GMRTEDLPKAVVFLEPQWYSVLEKDSVTLKCQGAYSPEDNSTQWFHNENLISSQASSYFIDAATVNDSGEYRCQTNLSTLSDPVQLEVHIGWLLLQAPRWVFKEEDPIHLRCHSWKNTALHKVTYLQNGKDRKYFHHNSDFHIPKATLKDSGSYFCRGLVGSKNVSSETVNITITQGLAVSTIS
B10: IL24 (protein, UniProt Q13007 52-206, looked up)
Interleukin-24: QEFHFGPCQVKGVVPQKLWEAFWAVKDTMQAQDNITSARLLQQEVLQNVSDAESCYLVHTLLEFYLKTVFKNYHNRTVEVRTLKSFSTLANNFVLIVSQLQPSQENEMFSIRDSAHRRFLLFRRAFKQLDVEAALTKALGEVDILLTWMQKFYKL
B11: ERAB (protein, UniProt Q99714 2-261, looked up)
3-hydroxyacyl-CoA …: AAACRSVKGLVAVITGGASGLGLATAERLVGQGASAVLLDLPNSGGEAQAKKLGNNCVFAPADVTSEKDVQTALALAKGKFGRVDVAVNCAGIAVASKTYNLKKGQTHTLEDFQRVLDVNLMGTFNVIRLVAGEMGQNEPDQGGQRGVIINTASVAAFEGQVGQAAYSASKGGIVGMTLPIARDLAPIGIRVMTIAPGLFGTPLLTSLPEKVCNFLASQVPFPSRLGDPAEYAHLVQAIIENPFLNGEVIRLDGAIRMQP

Experiment: SOMAscan serum proteomics in NASH subjects treated with selonsertib/simtuzumab, baseline and week 24
Design: species or system human
Conditions: serum protein marker level, week 24 vs baseline
[1] = CRN fibrosis stage non-improvers
[2] = lobular inflammation non-improvers

Molecule | Median percent CHG at W24 in improver (steatosis improvers) [%] | Median percent CHG at W24 in Non-improver (steatosis non-improvers) [%] | Median percent CHG at W24 in improver (CRN fibrosis stage improvers) [%] | Median percent CHG at W24 in Non-improver [1] [%] | Median percent CHG at W24 in improver (lobular inflammation improvers) [%] | Median percent CHG at W24 in Non-improver [2] [%]
B1 | −3.57 | 7.995 |  |  |  | 
B2 | −28.48 | −8.95 |  |  |  | 
B3 | −10.72 | 3.09 |  |  |  | 
B4 | −6.28 | 3.91 |  |  |  | 
B5 | −8.34 | −0.925 |  |  |  | 
B6 | −30.97 | −6.785 | −26.22 | −8.6 |  | 
B7 | −7.93 | 7.925 |  |  |  | 
B8 | −9.18 | 0.81 | −4.89 | −0.44 |  | 
B9 |  |  |  |  | −14.29 | −1.44
B10 |  |  |  |  | −3.985 | 2.03
B11 |  |  |  |  | −26.665 | 2.01
